The supplement of paper PMC3334620
Over roughly 33,000 sequences, “E-score (-0.5 to 0.5)” has its median near -0.0059; the highest 2% begin near 0.26. The list shows a part of the results.

molecular target: T1, Cin5 (UniProt P40917); experiment: PBM E-score (8-mer binding enrichment) (E-score (-0.5 to 0.5)); higher = stronger / more preferred TF binding; conditions: protein concentration: 100 nM; construct: GST-full length
T1 sequence: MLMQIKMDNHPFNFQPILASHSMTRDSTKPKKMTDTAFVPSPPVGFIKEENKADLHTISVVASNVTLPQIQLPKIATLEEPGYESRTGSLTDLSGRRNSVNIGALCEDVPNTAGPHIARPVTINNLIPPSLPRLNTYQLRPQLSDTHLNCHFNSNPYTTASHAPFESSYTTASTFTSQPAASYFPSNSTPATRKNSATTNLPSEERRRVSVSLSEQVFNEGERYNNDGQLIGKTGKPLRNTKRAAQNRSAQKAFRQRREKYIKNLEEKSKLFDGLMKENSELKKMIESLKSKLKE
Method in brief: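 Each ungapped eight-base word and its reverse complement, pooled, received an E-score from the Universal PBM Analysis Suite. Underlying scans, normalised with masliner, recorded fluorescent anti-GST bound to GST-tagged yeast transcription factors. These were applied at about 100-200 nM to universal all-10-mer Agilent arrays double-stranded by primer extension.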

Row | Sequence | PBM E-score
1 | GGAGGCGA | -0.187
2 | AATCCTTG | 0.158
3 | AACGCCCC | -0.0624
4 | ATCAGAAA | 0.0234
5 | ATTCTCAG | 0.00598
6 | AATAGGGC | -0.197
7 | ACTTTCAT | 0.0836
8 | CAGGTGGA | -0.188
9 | TGTAACAA | 0.1
10 | CGTCTGAC | -0.0634
11 | CTAGTGAG | -0.0621
12 | CTTAACTA | 0.227
13 | ATCTTAAG | -0.00288
14 | GAAAAAGC | -0.0691
15 | ACGAAAAG | 0.0371
16 | CAACTGAC | -0.114
17 | GCTCCACA | -0.305
18 | AACACGTT | -0.0784
19 | GCAATAGA | -0.0214
20 | CTCCTTTA | -0.234
21 | AAGAAATA | 0.104
22 | ATGCTATA | -0.0146
23 | ATCACAAC | 0.0894
24 | TCTGCAAA | -0.0611
25 | AGAGCCTA | -0.133

Looked up above:
In PBM E-score, GCAATAGA is listed with -0.0214
In PBM E-score, AAGAAATA is listed with 0.104

(listing goes on)

Row | Sequence | PBM E-score
26 | AGCGCCGA | -0.215
27 | GTACATAC | -0.00133
28 | AGAAAGTG | 0.0801
29 | ATGAGTAA | 0.137
30 | ATTGCATC | 0.12
31 | CTTTTCCC | -0.028
32 | AAAGTAAA | 0.171
33 | CGGTGAAA | 0.0241
34 | AAGAAGAT | 0.075
35 | GGGGCACC | -0.367
36 | ATACAATG | 0.123
37 | AATGGGAA | -0.0778
38 | AACATGGC | -0.04
39 | AATTTAGC | 0.091
40 | CACTACAA | 0.19
41 | ACGCGACG | -0.00148
42 | ACGGCGAT | 0.126
43 | AAAGTTCT | -0.0295
44 | ACATAAGT | 0.195
45 | GATTAAGC | 0.244
46 | AAACTTCA | 0.0632
47 | CTCCCCGA | -0.141
48 | CAAATCTG | -0.0445
49 | ATCGAGAT | 0.223
50 | GCACTCCC | -0.146

Row | Sequence | PBM E-score
51 | CGCCTTGA | -0.133
52 | TCGGTCAA | 0.00289
53 | CGTCGCTA | 0.0608
54 | AAAGACCG | -0.181
55 | GAAACTGA | -0.17
56 | CCGACCTA | 0.0421
57 | GAGCCTAA | -0.052
58 | GAAGGCGC | -0.206
59 | ATAATTCA | 0.163
60 | CAAGAACC | 0.0689
61 | TGCCGTAA | 0.152
62 | CGTTAACG | 0.0398
63 | CGCAACTA | 0.267
64 | TCTGACAA | -0.0063
65 | CCGTTCCA | 0.017
66 | AGCTATTA | 0.0945
67 | CTTTACGC | 0.0738
68 | CAATCCAG | 0.137
69 | CACTATGG | -0.15
70 | AGCGTCAT | 0.0262
71 | CAAAGCGG | -0.0272
72 | ACAGTTAG | 0.0386
73 | AGAGTGTG | -0.0181
74 | ACACATAG | -0.0306
75 | GACTCGTA | -0.2

Row | Sequence | PBM E-score
76 | GCTACGTA | 0.0228
77 | ACTTGCAT | 0.206
78 | ACAGCGGG | -0.0265
79 | ATTGCAGC | 0.0151
80 | CCCATACA | 0.00179
81 | ACCTAAAC | 0.0646
82 | ATGCCTGG | -0.226
83 | ATCCTAGC | 0.0411
84 | AGAAACCA | 0.123
85 | GGGGAAAA | 0.0564
86 | GTTCTACA | -0.127
87 | CGGCTGCA | -0.224
88 | CAGAACGA | 0.0474
89 | CATAGGAC | -0.216
90 | AGATCGCC | -0.0294
91 | CTTTATTC | 0.0217
92 | CCCTGGCC | -0.348
93 | ATCGGTTA | 0.151
94 | GCCACCGC | -0.118
95 | GAAGAAAA | 0.014
96 | CCTGCAGG | -0.134
97 | CAAGATTG | 0.00182
98 | CATAGTCA | 0.102
99 | ACCCGTGC | -0.257
100 | ATAACTAC | 0.231

Row | Sequence | PBM E-score
101 | AGAAGAGG | -0.232
102 | CACCCCTC | -0.0486
103 | CGAGTCTC | -0.29
104 | CGACCTAA | 0.0622
105 | GTTTATAA | 0.136
106 | CATGGTAC | 0.0904
107 | GGATGGGA | 0.0309
108 | AGGTCCTA | -0.205
109 | GCTTGGTA | 0.0775
110 | CACTTCTA | -0.0259
111 | CTGATCAC | -0.0393
112 | AAGAACGA | 0.105
113 | AAAGGCTG | -0.175
114 | CATCGGGG | -0.142
115 | ACGTCAGG | -0.0212
116 | CGCACTTA | -0.0374
117 | TCGGTACA | -0.0943
118 | AAAAGCCA | 0.112
119 | TAGTACAA | 0.161
120 | CCCGCAGG | -0.135
121 | CCCGTGAG | -0.0808
122 | TGATCCCA | 0.066
123 | GCTTTGAA | -0.102
124 | ATGTAGTC | 0.0648
125 | GGTAACCA | -0.151

Random excerpt: five entries already listed
Row | Sequence | PBM E-score
125 | GGTAACCA | -0.151
120 | CCCGCAGG | -0.135
116 | CGCACTTA | -0.0374
111 | CTGATCAC | -0.0393
106 | CATGGTAC | 0.0904

More results follow:

Row | Sequence | PBM E-score
126 | CGGAGTAC | -0.0636
127 | CACTACAG | -0.0413
128 | CAGATGCC | -0.193
129 | CCATTCAG | 0.103
130 | CGCGGGCC | 0.0512
131 | GACGGGGA | -0.131
132 | CGTGGAAC | -0.0687
133 | ATTGTGGA | -0.0238
134 | ACGTGAAC | -0.16
135 | GATGTTAA | 0.209
136 | CTCCGTTA | -0.0665
137 | AATCAATC | 0.245
138 | ACAGATAA | 0.139
139 | AGCGTACC | -0.18
140 | TCGCCTCA | -0.0845
141 | GTATGCGA | 0.113
142 | CCCGAATC | -0.0402
143 | TCTCTCCA | -0.0841
144 | TCCCAGAA | -0.129
145 | ACACTGTA | -0.0445
146 | CCTTACTA | 0.0454
147 | ATATTCGA | 0.026
148 | ATTATTTA | 0.319
149 | AAGCGCAG | 0.14
150 | ACGTGTAA | 0.104

Row | Sequence | PBM E-score
151 | CAAGGACC | -0.071
152 | AGGCGGGG | -0.0324
153 | CATTACCA | 0.109
154 | ATCCTCCC | -0.103
155 | AAATGCCA | -0.0407
156 | CCGTGCAC | -0.197
157 | GGCGCGAC | 0.00209
158 | AGAAAGTA | -0.0086
159 | CCTCCCCC | -0.461
160 | CATCGAGG | -0.0889
161 | AGTGCCCC | -0.263
162 | GTGCTCAA | 0.0685
163 | ACCCACTA | 0.132
164 | ACGTGAAA | 0.134
165 | CGCCATTC | 0.0442
166 | ATCATGAT | 0.098
167 | TAGGGTAA | 0.126
168 | AAGGCACA | -0.0687
169 | ACGTCAAG | -0.174
170 | GGTCATAA | 0.0378
171 | AAACGACC | 0.106
172 | AAACCTCA | 0.178
